Test results reported in US20260055194A1.
Results are given in words; binding and its absence hold for the method and conditions named. Some entries that bind do so weakly or less than the wild type.

Sequences of proteins named here, by UniProt entry; tags and fusion partners are left off. Residues count along the entry.
UniProt P11717, residues 41-1365: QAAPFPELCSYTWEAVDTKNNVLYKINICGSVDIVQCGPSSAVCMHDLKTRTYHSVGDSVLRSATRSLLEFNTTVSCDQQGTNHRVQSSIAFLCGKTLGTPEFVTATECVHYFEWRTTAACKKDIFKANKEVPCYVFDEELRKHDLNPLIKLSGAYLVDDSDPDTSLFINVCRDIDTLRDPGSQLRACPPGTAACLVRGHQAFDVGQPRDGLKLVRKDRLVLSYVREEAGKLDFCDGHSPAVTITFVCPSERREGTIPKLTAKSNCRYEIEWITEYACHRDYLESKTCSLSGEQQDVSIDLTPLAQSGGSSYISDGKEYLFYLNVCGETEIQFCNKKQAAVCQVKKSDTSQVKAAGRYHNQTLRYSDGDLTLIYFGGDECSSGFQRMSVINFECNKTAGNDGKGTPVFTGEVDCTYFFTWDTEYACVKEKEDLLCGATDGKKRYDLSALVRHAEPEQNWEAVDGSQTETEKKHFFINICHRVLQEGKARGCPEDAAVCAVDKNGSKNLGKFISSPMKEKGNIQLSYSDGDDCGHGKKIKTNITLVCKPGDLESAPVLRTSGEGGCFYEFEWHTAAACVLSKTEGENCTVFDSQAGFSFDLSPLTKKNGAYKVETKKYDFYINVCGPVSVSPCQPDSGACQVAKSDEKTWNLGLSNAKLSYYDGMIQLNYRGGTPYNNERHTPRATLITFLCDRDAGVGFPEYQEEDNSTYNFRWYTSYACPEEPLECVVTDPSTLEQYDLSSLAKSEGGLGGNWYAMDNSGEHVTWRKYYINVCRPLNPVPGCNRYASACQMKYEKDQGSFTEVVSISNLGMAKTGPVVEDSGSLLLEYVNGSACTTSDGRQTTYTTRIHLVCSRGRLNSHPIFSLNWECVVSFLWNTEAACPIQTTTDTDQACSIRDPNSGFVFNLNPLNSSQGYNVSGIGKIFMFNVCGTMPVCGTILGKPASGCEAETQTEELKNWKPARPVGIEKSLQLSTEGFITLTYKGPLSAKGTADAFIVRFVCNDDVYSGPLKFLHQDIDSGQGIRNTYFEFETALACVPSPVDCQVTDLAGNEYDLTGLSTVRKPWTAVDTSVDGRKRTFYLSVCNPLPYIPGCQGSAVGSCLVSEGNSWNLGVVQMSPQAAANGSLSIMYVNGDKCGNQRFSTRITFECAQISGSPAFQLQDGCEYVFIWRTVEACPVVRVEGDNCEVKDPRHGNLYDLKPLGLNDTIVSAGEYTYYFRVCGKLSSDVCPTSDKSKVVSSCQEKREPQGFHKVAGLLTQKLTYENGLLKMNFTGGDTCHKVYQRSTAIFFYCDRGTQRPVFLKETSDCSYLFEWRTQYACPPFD

How the values were obtained:
[1] = target: purified recombinant CI-M6PR (domains 1-9) protein (human) (UniProt P11717); experiment: BLI domain mapping with chimeric human/mouse CI-M6PR
[2] = target: purified recombinant CI-M6PR (domains 1-9) protein (human) (UniProt P11717); experiment: ELISA on human M6PR, Abs 450nm, antibody about 0.0005-1 ug/mL
[3] = target: purified recombinant CI-M6PR (domains 1-9) protein (human) (UniProt P11717); experiment: BLI, association at pH 7.4, Koff at pH 6.0 or 5.0 divided by Koff at pH 7.4
[4] = target: purified recombinant CI-M6PR (domains 1-9) protein (human) (UniProt P11717); experiment: BLI, antibody on anti-mouse IgG Fc sensor, His-tagged CI-M6PR construct in solution (domain mapping)
[5] = target: purified recombinant CI-M6PR (domains 1-9) protein (human) (UniProt P11717); experiment: BLI; Koff at pH 5.0 and pH 6.0 divided by Koff at pH 7.4
[6] = target: purified recombinant CI-M6PR (domains 1-9) protein (human) (UniProt P11717); experiment: BLI; association at pH 7.4, dissociation at pH 7.4, 6.0 or 5.0 in citric acid buffer
[7] = target: purified recombinant CI-M6PR (domains 1-9) protein (human) (UniProt P11717); experiment: BLI, antibody on anti-mouse IgG Fc sensor, human CI-M6PR in citric acid buffer, association at pH 7.4, dissociation at pH 7.4, 6.0 or 5.0

Measured: binding

B1: 03C7 (antibody, V domains shown)
VH: QVQLQQSGPELVKPGASVKISCKASGYSFTSYYIHWVKQRPGQGLEWIGWIYPGSGNTKYNEKFKGKATLTADTSSSTAYMQLSSLTSEDSAVYYCARMGSSYWYFDVWGTGTTVTVSS
VL: ENVLTQSPAIMAASLGQKVTMTCSASSSVSSSYLHWYQQKSGASPKPLIHRTSNLASGVPARFSGSGSGTSYSLTISSVEAEDDATYYCQQWSGYPLTFGAGTKLELK
binds: [1] | [2] | [3] | [4]

B2: 06D1 (antibody, V domains shown)
VH: EVQLQQSGAELVRPGASVKLSCTASGFNIKDDYMHWVKQRPEQGLEWIGWIDPENGDTEYASKFQGKATITADTSSNTAYLQLSSLTSEDTAVYYCTTVAPGYYAMDYWGQGTSVTVSS
VL: ENVLTQSPAIMSASPGEKVTMTCRASSSVSSSYLHWYQQKSGASPKLWIYSTSNLASGVPARFSGSGSGTSYSLTISSVEAEDAATYYCQQYSGFTFGSGTKLEIK
binds: [1] | [2] | [3] | [4]

B3: 08D8 (antibody, V domains shown)
VH: QVQLQQPGAELVKPGASVKLSCKASGYTFTSYWMQWVKQRPGQGLEWIGEIDPSDSYTNYNQKFKGKATLTVDTSSSTAYMQLSSLTSEDSAVYYCARGDYYGSSSWFAYWGQGTLVTVSA
VL: DIVMTQAAPSVPVTPGESVSISCRSSKSLLHSNGNTYLYWFLQRPGQSPQLLIYRMSNLASGVPDRFSGSGSGTAFTLRISRVEAEDVGVYYCMQHLEYPFTFGAGTKLELK
binds: [2] | [4]

B4: 11B12 (antibody, V domains shown)
VH: QVQLQQSGPELVKPGASVKISCKASGYSFTSYYIHWVKQRPGQGLEWIGWIYPGSGNTKYNEKFKGKATLTADTSSSTAYMQLSSLTSEDSAVYYCARGNWHWYFDVWGTGTTVTVSS
VL: EIVLTQSPALMAASPGEKVTITCSVSSSISSSNLHWYQQKSETSPKPWIYGTSNLASGVPVRFSGSGSGTSYSLTISSMEAEDAATYYCQQWSSYPLTFGAGTKLELK
binds: [1] | [2] | [3] | [4]

B5: 17F11 (antibody, V domains shown)
VH: EVQLQQSGPELVKPGASVKMSCKASGYTFTDYNMHWVKQSHGKSLEWIGYINPNNGGTNYNQKFQGKATLTVNKSSRTAYMELRSLTSEDSAVYYCVRFYYGSRYYAMDYWGQGTSVTVSS
VL: DIVMTQSPATLSVTPGDRVSLSCRASQSISDYLHWYQQKSHESPRLLIKYASQSISGIPSRFSGSGSGSDFTLSINSVEPEDVGVYYCQNGHSFPYTFGGGTKLEIK
binds: all assays above

B6: 18G4 (antibody, V domains shown)
VH: EVKLMESGGGLVQPGASLRLSCAASGFTFTDYYMSWVRQPPGKAPEWLALIRNKANGYTTEYNASVKGRFTISRDNSQNILYLQMNTLRTEDSATYYCVRGGFAYWGQGTLVTVSA
VL: QAVVIQESALTTSPGETVTLTCRSSTGAVTTSHYAIWVQEKPDHLFTGLIGGTNNRVPGVPARFSGSLIADKAALTITGAQTEDEAIYFCALWYTNQFIFGSGTKVTVL
not listed: [5]
binds: all other assays above

B7: 21D5 (antibody, V domains shown)
VH: QVQLKQSGPGLVQPSQSLSITCTVSGFSLTRYGVHWVRQSPGKGLEWLGVIWRGGSTDYNAAFMSRLSITKDNSKSQVFFKMNSLQADDTAIYYCAKEGTGILDSWGQGTTLTVSS
VL: DIVLTQSPASLAVSLGQRATISCRASKSVSTSGYSYMHWYQQKPGQPPTLLIYLASNLESGVPARFSGSGSGTDFTLNIHPVEEEDAATYYCQHSRELPYTFGGGTKLEIK
binds: all assays above

B8: 53B11 (antibody, V domains shown)
VH: EVQLQQSGPELVKPGTSMKISCKASGYSFTDYTVNWVKQSHGKNLEWIGLINPYNGGTSYNQKFKGKATLTVDKSSSTAYMELLSLTSEDSAVYYCARWGYYYATSYYFAMDYWGQGTSVTVSS
VL: DIQMNQSPSSLSASLGDTITITCHASQNINVWLSWYQQKPGNIPKLLIYKASNLHTGVPSRFSGSGSGTGFTLTISSLQPEDIATYYCQQGQSYPWTFGGGTKLEIK
binds: [1] | [2] | [3] | [4]

B9: 45A12 (antibody, V domains shown)
VH: QVQLQQSGAELMKPGASVKISCKATGYTFSTYWIEWVKQRPGHGLEWIGEILPGSGSTNYNEKFKGKATFTADASSNTAYMQLSSLTSEDSAVYYCARDGGAMDYWGQGTSVTVSS
VL: NIMMTQSPSSLAVSAGEKVTMSCKSSQRVLYSSNQKNYLAWYQQKPGQSPKLLIYWASTRESGVPDRFTGSGSGTDFTLTISTVQPEDLAVYYCHQYLSSRTFGGGTKLEIK
binds: [2] | [3]

B10: 16H4 (antibody, V domains shown)
VH: QVQLKQSGPGLVQPSQSLSITCTASGFSLTSYGVHWVRQSPGKGLEWLGVIWSGGSTDYSAAFISRLSISKDSSKSQVFFKMNSLQADDTAIYYCARNLPITSYDPSSFYAMDYWGQGTSVTVSS
VL: DIQMTQTTSSLSASLGDRVTISCSASQGISNYLNWYQQKPDGTVKLLIYYTSSLHSGVPSRFSGSGSGTDYSLTISNLEPEDIATYYCQQYSKLPFTFGSGTKLEIK
binds: [2]

B11: 12D5 (antibody, V domains shown)
VH: QVQLQQPGAELVKPGASVKLSCKASGYTFTNYWMHWVKQRPGQGLEWIGMIHPNSGSTNYNEKFKSKATLTVDKSSSTAYMQLSSLTSEDSAVYYCARPHGYPFGYWGQGTTLTVSS
VL: ENVLTQSPAIMSASLGEKVTMSCRASSSVNYMYWYQQKSDASPKLWIYYTSNLAPGVPARFSGSGSGNSYSLTISSMEGEDAATYYCQQFTSSPYTFGGGTKLEIK
binds: [2]

B12: 10H5-2 (antibody, V domains shown)
VH: EVQLQQSGAELVRPGASVKLSCTASGFNIKDDYMHWVKQRPEQGLEWIGWIDPENGDTEYASKFQGKATITADTSSNTAYLQLSSLTSEDTAVYYCTTQYGPLYFDYWGQGTTLTVSS
VL: QAVVTQESALTTSPGETVTLTCRSSTGAVTTSKYANWVQEKPDHLFTGVIGGTNNRAPGVPARFSGSLIGDKAALTITGAQTEDEAIYFCALWYSNHWVFGGGTKLTVL
binds: [2]
